Assay results from PMC12043649.
Results are given in words; binding and its absence hold for the method and conditions named. Binding seen in cells or lysates may run through a third protein. Some binding calls cover weakened binding; strength is not graded here.

Sequences of proteins named here, by UniProt entry; tags and fusion partners are left off.
UniProt P12004: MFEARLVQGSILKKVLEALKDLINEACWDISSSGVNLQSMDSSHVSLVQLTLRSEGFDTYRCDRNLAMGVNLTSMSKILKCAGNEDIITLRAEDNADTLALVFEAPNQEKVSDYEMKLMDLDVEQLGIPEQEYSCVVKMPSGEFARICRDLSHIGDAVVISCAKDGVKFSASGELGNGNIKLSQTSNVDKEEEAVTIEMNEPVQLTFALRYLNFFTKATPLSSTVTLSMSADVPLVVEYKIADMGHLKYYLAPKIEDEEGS
UniProt P09874: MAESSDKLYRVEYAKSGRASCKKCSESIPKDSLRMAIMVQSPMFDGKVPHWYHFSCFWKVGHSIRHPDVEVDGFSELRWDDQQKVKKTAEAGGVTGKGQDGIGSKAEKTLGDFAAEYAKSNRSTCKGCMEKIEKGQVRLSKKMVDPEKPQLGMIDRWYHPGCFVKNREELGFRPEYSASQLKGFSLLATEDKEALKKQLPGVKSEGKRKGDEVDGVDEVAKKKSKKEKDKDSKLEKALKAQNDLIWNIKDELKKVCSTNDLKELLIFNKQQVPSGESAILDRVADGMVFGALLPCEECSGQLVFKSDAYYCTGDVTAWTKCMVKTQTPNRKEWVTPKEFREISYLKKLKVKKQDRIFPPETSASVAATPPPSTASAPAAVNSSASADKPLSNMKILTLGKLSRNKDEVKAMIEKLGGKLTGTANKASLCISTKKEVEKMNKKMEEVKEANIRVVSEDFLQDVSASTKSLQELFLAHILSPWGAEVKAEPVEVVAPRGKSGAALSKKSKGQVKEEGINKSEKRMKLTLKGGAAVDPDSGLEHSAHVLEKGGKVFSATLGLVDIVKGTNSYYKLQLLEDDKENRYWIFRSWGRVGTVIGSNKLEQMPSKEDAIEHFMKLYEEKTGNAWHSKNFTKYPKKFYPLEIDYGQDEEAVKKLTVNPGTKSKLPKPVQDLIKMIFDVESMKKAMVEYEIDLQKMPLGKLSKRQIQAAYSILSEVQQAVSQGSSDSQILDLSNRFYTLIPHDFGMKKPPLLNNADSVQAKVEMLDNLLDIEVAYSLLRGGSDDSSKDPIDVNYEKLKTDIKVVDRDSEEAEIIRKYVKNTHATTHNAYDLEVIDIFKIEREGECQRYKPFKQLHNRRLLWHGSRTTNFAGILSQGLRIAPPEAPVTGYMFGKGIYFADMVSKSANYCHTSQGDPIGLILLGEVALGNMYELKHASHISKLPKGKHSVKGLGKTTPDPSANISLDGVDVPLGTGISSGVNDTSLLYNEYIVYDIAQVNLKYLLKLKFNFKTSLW

Target: Proliferating cell nuclear antigen (PCNA) (human (endogenous in HCC cell lines)) (UniProt P12004)
Assay: co-IP; Protein A/G Magnetic IP/Co-IP kit; cells lysed in enhanced lysis buffer with protease and phosphatase inhibitors; supernatants incubated with 1-4 ug of primary antibodies overnight at 4°C, then immunoblotting

poly (ADP-ribose) polymerase 1 (PARP1) (from UniProt P09874 1-1014)
binding: binds
